Source: patent US12358880B2, “1,4-bis-(2-hydroxy-benzyl)-1,4,7-triazacyclononane derivatives and similar compounds as ligands in iron(III) complexes for use as MRI contrast agents” (BRACCO IMAGING S.P.A., priority 2022, dated 2025)
Some of these results come from one statement about several compounds together.

Assay: Redox stability: reduction of Fe(III) complexes by ascorbic acid (spectrophotometry)
Type: physicochemical

Row | Structure (SMILES) | ΔpFe (selectivity for Fe(III)-ion over Fe(II)-ion)
1 | Cc1cc(CNC(CO)CO)c(O)c(CN2CCCN(Cc3cc(C)cc(CNC(CO)CO)c3O)CCN(Cc3cc(C)cc(CNC(CO)CO)c3O)CCC2)c1 [Compound 57, 2,2′,2″-{1,4,8-triazonane-1,4,8-triyltris[methylene(2-hydroxy-5-methyl-3,1-phenylene)methyleneazanediyl]}tri(propane-1,3-diol)] | > 16
2 | Cc1cc(CNC(CO)CO)c(O)c(CN2CCN(Cc3cc(C)cc(CNC(CO)CO)c3O)CCN(Cc3cc(C)cc(CNC(CO)CO)c3O)CC2)c1 [Compound 2, 2,2′,2″-{1,4,7-triazonane-1,4,7-triyltris[methylene(2-hydroxy-5-methyl-3,1-phenylene)methyleneazanediyl]}tri(propane-1,3-diol)] | > 16
